Assay results: the supplement of paper PMC10849652
The other results are listed elsewhere or left out.

Protein sequences, listed by entry. Tags and fused reporters are not part of them. Lines headed by an entry give the natural chain unless they say otherwise; changes in a name come on top.
UniProt Q8IWT0: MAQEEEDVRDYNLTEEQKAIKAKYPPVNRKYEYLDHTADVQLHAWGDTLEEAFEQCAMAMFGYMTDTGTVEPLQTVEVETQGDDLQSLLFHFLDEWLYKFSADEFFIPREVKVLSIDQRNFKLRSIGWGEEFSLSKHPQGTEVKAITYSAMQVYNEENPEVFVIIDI
UniProt A8MPS7: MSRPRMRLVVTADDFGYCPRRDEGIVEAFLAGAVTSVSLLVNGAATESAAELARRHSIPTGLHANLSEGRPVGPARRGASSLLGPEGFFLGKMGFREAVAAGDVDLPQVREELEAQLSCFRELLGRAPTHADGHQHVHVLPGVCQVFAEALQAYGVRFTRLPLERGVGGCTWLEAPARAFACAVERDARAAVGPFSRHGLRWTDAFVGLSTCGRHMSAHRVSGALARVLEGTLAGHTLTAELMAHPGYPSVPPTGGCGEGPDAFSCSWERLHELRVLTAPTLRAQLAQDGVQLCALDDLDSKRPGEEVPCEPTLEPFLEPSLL
UniProt Q5BJH7: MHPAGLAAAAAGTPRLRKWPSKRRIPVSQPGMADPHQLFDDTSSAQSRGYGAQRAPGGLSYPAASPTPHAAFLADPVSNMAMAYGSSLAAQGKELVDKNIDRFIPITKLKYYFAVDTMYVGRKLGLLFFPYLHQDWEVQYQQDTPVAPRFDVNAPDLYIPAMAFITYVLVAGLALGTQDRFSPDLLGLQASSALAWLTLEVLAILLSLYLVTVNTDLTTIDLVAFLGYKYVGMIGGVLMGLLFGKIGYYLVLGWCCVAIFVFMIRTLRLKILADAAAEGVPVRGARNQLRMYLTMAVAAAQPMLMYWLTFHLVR
UniProt Q13426: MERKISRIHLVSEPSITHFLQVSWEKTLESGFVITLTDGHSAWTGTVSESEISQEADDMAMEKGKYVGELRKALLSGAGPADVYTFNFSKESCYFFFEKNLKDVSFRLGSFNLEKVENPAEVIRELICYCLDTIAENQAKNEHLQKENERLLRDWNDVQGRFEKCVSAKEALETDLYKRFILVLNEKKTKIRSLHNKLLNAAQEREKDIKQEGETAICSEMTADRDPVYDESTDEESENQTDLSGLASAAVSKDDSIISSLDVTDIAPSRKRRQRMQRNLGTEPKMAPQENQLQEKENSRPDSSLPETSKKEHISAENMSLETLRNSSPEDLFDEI
UniProt P31946: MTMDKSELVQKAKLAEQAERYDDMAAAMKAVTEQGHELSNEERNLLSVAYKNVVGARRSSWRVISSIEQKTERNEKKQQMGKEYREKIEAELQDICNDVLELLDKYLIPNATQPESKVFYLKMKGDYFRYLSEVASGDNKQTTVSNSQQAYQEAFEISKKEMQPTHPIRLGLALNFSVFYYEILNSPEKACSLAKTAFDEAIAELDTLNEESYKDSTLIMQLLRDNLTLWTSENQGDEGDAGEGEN
UniProt Q9NUE0: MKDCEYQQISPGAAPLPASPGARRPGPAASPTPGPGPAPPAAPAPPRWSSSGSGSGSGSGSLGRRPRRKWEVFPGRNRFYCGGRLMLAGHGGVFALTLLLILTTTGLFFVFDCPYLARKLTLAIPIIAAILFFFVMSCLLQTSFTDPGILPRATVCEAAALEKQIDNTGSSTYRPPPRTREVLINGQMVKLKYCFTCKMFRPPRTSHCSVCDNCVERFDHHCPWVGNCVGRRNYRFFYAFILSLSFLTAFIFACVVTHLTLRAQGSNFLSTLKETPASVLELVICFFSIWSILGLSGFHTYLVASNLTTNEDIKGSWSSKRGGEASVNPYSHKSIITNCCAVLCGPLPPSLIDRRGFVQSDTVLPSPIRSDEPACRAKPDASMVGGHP
UniProt Q7Z739: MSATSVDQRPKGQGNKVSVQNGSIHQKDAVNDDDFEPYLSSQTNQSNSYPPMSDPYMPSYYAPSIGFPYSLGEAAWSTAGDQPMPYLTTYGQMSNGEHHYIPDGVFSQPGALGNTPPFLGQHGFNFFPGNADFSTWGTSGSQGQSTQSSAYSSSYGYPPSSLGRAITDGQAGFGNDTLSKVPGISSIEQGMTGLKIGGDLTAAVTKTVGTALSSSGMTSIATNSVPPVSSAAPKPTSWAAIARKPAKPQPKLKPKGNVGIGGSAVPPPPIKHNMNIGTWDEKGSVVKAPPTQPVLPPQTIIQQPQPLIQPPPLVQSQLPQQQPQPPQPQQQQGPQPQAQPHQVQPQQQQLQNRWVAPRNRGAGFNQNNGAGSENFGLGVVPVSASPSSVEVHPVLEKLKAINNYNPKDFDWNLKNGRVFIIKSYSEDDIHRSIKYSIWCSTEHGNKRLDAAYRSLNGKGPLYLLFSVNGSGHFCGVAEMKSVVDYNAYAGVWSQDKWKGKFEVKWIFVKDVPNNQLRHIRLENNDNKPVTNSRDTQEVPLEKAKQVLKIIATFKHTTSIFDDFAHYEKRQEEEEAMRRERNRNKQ
UniProt O95365: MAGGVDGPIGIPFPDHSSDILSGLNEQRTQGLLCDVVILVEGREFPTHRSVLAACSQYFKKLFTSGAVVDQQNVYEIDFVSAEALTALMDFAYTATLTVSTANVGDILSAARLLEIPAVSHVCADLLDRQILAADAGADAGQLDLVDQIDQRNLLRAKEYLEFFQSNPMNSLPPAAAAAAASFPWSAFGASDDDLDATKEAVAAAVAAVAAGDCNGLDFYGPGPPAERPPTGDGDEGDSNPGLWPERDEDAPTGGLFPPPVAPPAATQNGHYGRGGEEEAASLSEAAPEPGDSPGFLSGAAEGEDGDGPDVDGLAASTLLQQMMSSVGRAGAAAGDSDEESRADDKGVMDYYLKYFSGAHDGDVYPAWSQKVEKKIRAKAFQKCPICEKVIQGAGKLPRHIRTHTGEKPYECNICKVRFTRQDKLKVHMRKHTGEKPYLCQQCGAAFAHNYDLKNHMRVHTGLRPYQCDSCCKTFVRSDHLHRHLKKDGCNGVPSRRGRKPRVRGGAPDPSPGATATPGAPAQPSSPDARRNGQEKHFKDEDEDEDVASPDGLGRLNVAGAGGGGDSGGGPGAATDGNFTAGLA
UniProt Q9BW85: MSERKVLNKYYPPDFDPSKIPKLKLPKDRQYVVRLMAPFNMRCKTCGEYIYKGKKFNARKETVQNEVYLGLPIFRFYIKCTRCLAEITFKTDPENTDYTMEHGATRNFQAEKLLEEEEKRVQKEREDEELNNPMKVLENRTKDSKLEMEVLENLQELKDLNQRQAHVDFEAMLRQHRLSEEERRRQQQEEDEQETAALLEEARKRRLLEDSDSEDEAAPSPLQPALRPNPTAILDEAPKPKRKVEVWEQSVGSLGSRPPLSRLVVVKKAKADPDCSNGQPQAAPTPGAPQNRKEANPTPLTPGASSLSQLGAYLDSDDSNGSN

Columns and labels:
Assay in all cases: log2 fold change, soluble protein after heating vs DMSO (PISA); higher = thermal stabilisation; K562 lysate, 10 uM; active = over 0.2 and 3.5 SD of the protein, either way, in both replicates (recomputed)
[1] = compound: C1=CC=C(C=C1)[C@H](COC2=CC3=C(C=C2)NC(=O)N3)NC(=O)C4=CC=CN(C4=O)CC5=CC(=C(C=C5)F)F
How it was run: (§1)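 Dounce homogenisation of K562 pellets in PBS pH 7.4 with 1 mM MgCl2 produced a crude extract, used at 1 mg/mL protein. Exposure to 10 μM compound lasted 30 min, and aliquots were then heated for 3 min across 48°C-58°C, pooled and brought to 0.5% NP-40 at 4°C. The supernatant after 21,000xg for 90 min was quantified by TMTpro 16plex LC-MS/MS with channel sums equalised. Duplicate values are given as log-two fold change in thermal stability relative to solvent controls.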

[2] = compound: CC1=C(SC2=C1C(=N[C@H](C3=NN=C(N32)C)CC(=O)N)C4=CC=C(C=C4)Cl)C
How it was run: as §1

[3] = compound: CC1=C2C(=CC=C1)N=C(N(C2=O)C3=CC=CC=C3C)CN4C=NC5=C(N=CN=C54)N
How it was run: as §1

[4] = compound: Cc1sc2c(c1C)C(c1ccc(Cl)cc1)=N[C@@H](CC(=O)OC(C)(C)C)c1nnc(C)n1-2
How it was run: as §1

[5] = compound: c1ccc([C@@H]2C[C@H]2NC2CCNCC2)cc1
How it was run: as §1

Measured: log2 fold change

ZBTB8OS (UniProt Q8IWT0)
inactive: [1] -0.043 | [2] 0.005 | [3] -0.017 | [4] -0.013 | [5] -0.001

YDJC (UniProt A8MPS7)
inactive: [1] 0.001 | [2] -0.012 | [3] -0.003 | [4] 0.012 | [5] 0.018

YIF1B (UniProt Q5BJH7)
inactive: [1] -0.008 | [2] 0.005 | [3] 0.059 | [4] -0.024 | [5] 0.044

XRCC4 (UniProt Q13426)
inactive: [1] 0.021 | [2] -0.024 | [3] 0 | [4] 0.021 | [5] -0.045

YWHAB (UniProt P31946)
inactive: [1] -0.005 | [2] 0.006 | [3] -0.01 | [4] 0.048 | [5] 0.033

ZDHHC18 (UniProt Q9NUE0)
inactive: [1] 0.103 | [2] 0.115 | [3] 0.075 | [4] -0.072 | [5] 0.043

YTHDF3 (UniProt Q7Z739)
inactive: [1] -0.111 | [2] 0.021 | [3] 0.063 | [4] -0.01 | [5] -0.018

ZBTB7A (UniProt O95365)
inactive: [1] 0.285 | [2] -0.07 | [3] 0.072 | [4] 0.007 | [5] 0.058

YJU2 (UniProt Q9BW85)
inactive: [1] 0.021 | [2] 0.033 | [3] -0.027 | [4] -0.009 | [5] -0.004
